Some results were stated once for a whole list of compounds, not compound by compound. Some ranges recur; such a range may be that of the whole group of compounds. Non-standard residues stand in square brackets, D forms with d. Residues, ends and D or L forms follow the SMILES beside them. Cha = N[C@@H](CC1CCCCC1)C(=O)O
Experiments:
[1] = Viscosity of peptide solution before and after gelation (rheometer, flow experiment); assay type: physicochemical; details: 13 mg/ml in 1×PBS buffer, shear rate 29.7 s^−1
Description: The viscosity of the peptide solution before and after gelation is determined using the same rheometer, 25 mm parallel plate geometry, and a gap of 0.5 mm at 25° C. For the peptide solution, 250 μl of 13 mg/mL peptide solution is dropped on the Peltier plate and measured. For peptide gel samples, the peptide solution and 10×PBS buffer are mixed with the ratio of 1:10 on the Peltier plate and directly measured. The flow experiment is set up by starting the shear rate from 0.1 to 1500 s-1 for a 200-seconds duration. The value of the shear rate that we choose for our printing system is calculated using the equation below: 51
[formula] • γ: shear rate (s−1); Q: flow rate (95 μL/s); d: diameter of needle (0.514 mm).

[2] = Peptide gelation studies (vial inversion method); assay type: physicochemical; details: 1×PBS buffer
Description: The peptide powder is dissolved in 0.90 mL of Milli-Q® water and vortexed until a clear and homogeneous solution is observed. Then 0.10 mL of 10×PBS buffer (w/o Ca^2+ and Mg^2+) is added to the peptide solution. The glass vial is kept undisturbed, and the hydrogel formation is observed using the vial inversion method. The time and minimum concentration at which each peptide has formed a hydrogel are noted.

| SMILES | viscosity of hydrogel (range) [1] | gelation time ([2]; 2 mg/ml) | gelation time ([2]; 5 mg/ml) | gelation time ([2]; 10 mg/ml) | gelation time ([2]; 1 mg/ml) |
| --- | --- | --- | --- | --- | --- |
| CC[C@H](C)[C@H](NC(C)=O)C(=O)N[C@H](C(=O)N[C@@H](CC1CCCCC1)C(=O)N[C@@H](CCCCN)C(N)=O)[C@@H](C)CC [IIZK, Ac-Ile-Ile-Cha-Lys-NH2] (Ac-II[Cha]K-NH2) | 0.4-0.6 Pa's | less than 5 min | less than 5 min | less than 1 min |  |
| CC[C@H](C)[C@H](NC(C)=O)C(=O)N[C@H](C(=O)N[C@@H](Cc1ccccc1)C(=O)N[C@@H](CCCCN)C(N)=O)[C@@H](C)CC [IIFK, Ac-Ile-Ile-Phe-Lys-NH2] (Ac-IIFK-NH2) | 0.4-0.6 Pa's | less than 30 min | less than 5 min |  |  |
| CC[C@H](C)[C@H](NC(C)=O)C(=O)N[C@@H](CC1CCCCC1)C(=O)N[C@@H](CC1CCCCC1)C(=O)N[C@@H](CCCCN)C(N)=O [IZZK, Ac-Ile-Cha-Cha-Lys-NH2] (Ac-I[Cha][Cha]K-NH2) | 0.4-0.6 Pa's | less than 30 min | less than 5 min | less than 1 min | less than 30 min |

From US12590121B2, “Peptide compound with repetitive sequences” (KING ABDULLAH UNIVERSITY OF SCIENCE AND TECHNOLOGY, priority 2020, dated 2026)
